# Experimental data as given in the supplement of paper PMC10032668.
# Sequences of proteins named here, by UniProt entry; tags and fusion partners are left off.
# INCENP, Q9NQS7, UniProt Q9NQS7, whole entry: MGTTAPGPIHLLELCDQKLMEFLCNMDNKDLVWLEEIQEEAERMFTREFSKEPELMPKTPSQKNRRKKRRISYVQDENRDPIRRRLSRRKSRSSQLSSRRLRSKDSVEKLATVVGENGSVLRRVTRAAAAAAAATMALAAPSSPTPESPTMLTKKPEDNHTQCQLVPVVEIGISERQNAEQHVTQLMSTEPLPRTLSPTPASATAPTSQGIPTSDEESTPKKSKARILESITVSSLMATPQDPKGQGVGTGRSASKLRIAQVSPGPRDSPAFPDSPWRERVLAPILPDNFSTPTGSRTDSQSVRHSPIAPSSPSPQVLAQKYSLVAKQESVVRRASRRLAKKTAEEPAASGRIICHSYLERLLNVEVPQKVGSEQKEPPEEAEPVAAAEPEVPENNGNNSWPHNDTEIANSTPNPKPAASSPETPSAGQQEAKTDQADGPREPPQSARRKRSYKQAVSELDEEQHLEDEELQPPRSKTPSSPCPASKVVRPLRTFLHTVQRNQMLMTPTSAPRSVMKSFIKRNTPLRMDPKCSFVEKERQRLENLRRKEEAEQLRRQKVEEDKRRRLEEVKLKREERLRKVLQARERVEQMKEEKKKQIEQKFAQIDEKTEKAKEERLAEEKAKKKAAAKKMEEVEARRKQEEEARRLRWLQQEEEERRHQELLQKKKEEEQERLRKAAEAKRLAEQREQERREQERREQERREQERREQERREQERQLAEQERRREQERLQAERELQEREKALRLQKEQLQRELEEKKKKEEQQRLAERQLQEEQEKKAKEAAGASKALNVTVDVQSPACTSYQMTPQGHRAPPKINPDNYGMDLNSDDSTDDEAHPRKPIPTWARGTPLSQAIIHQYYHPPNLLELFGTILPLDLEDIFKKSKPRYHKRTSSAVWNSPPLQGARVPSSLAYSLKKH
# KHDRBS1, Q07666, UniProt Q07666, whole entry: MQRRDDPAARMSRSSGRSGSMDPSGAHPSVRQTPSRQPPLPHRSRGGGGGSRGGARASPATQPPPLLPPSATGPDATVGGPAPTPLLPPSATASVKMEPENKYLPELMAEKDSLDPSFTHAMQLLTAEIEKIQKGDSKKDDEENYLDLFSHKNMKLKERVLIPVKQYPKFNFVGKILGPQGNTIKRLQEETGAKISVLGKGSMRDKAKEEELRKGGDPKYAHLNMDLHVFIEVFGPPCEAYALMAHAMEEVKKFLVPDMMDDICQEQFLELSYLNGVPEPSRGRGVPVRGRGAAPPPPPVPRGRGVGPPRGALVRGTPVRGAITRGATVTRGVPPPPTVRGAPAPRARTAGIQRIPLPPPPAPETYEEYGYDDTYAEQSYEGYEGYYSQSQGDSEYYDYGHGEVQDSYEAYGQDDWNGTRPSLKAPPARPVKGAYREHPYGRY
# LRPAP1, P30533, UniProt P30533, whole entry: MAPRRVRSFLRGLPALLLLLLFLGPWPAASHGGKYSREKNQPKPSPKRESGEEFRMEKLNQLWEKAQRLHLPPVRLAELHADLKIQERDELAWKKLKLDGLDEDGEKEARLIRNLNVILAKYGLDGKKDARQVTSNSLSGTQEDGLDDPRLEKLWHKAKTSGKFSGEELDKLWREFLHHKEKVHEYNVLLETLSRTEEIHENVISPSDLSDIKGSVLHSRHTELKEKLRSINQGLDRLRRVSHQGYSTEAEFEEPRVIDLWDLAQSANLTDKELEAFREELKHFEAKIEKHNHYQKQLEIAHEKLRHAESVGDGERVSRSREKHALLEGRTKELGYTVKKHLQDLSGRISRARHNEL
# MAPK1, P28482, UniProt P28482, whole entry: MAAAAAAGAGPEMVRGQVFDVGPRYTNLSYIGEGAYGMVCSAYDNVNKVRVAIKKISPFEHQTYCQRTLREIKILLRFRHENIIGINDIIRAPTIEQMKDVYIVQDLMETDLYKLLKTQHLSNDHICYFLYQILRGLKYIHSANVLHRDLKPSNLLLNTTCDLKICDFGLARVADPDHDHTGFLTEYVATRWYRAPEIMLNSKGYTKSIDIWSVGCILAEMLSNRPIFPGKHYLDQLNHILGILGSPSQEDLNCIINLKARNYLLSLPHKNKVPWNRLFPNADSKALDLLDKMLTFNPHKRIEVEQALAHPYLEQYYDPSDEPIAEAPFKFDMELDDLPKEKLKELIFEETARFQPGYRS
# MED12, Q93074, UniProt Q93074, whole entry: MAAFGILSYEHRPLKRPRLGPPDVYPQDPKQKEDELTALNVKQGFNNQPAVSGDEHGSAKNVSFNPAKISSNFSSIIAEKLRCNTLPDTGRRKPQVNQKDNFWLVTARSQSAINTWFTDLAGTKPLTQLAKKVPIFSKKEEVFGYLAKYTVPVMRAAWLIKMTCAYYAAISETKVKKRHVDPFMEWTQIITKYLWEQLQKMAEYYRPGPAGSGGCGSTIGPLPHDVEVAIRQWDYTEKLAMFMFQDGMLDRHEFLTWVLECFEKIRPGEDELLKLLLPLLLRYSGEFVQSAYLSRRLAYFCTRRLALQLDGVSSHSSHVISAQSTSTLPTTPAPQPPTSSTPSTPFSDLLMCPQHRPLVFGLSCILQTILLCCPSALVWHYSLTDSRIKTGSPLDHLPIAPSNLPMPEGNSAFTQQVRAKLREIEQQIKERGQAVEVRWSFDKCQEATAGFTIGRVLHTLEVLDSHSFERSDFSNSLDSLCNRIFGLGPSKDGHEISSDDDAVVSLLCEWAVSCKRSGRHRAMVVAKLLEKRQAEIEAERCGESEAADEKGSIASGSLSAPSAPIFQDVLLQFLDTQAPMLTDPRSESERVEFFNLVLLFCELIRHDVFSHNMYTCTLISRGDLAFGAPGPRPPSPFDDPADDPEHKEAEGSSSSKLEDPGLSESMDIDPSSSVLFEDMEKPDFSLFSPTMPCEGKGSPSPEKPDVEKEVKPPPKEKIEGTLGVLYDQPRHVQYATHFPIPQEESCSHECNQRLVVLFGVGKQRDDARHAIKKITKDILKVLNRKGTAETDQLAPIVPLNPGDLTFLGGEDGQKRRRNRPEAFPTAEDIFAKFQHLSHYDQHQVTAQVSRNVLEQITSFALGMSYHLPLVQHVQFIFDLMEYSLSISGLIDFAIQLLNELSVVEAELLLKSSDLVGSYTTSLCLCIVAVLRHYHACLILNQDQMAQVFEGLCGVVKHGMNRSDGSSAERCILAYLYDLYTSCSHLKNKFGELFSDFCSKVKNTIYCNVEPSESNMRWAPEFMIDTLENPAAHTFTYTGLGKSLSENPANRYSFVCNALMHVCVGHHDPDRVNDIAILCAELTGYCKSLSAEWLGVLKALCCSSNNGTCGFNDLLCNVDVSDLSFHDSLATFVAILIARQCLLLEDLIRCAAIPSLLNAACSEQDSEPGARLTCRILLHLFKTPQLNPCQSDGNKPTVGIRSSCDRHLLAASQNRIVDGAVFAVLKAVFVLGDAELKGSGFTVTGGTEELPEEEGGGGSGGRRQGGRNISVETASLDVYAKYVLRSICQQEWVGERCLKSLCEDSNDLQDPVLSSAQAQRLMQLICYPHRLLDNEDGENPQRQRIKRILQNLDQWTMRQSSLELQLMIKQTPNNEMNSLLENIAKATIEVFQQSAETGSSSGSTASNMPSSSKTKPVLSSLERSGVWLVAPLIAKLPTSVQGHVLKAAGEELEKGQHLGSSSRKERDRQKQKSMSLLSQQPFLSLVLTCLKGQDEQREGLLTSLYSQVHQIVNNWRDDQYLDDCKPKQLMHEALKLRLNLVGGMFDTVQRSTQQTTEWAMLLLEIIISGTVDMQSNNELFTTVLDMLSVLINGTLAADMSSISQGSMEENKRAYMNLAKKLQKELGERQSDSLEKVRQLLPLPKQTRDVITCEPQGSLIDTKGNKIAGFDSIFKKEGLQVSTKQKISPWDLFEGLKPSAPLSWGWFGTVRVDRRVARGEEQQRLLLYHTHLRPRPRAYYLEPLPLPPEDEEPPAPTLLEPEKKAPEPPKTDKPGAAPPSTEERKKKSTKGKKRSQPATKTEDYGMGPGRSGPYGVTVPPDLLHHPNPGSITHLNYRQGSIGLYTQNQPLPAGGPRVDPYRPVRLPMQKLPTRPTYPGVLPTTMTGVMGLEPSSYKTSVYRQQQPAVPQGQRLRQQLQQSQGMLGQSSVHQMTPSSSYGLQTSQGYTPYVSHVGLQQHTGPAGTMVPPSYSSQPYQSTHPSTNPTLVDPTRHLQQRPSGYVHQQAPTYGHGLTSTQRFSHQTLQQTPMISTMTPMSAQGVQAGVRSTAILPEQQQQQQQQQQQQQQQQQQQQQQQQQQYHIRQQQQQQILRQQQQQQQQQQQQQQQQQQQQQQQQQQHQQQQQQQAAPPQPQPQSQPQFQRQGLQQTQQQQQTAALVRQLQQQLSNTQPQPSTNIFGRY
# MORF4L2, Q15014, UniProt Q15014, whole entry: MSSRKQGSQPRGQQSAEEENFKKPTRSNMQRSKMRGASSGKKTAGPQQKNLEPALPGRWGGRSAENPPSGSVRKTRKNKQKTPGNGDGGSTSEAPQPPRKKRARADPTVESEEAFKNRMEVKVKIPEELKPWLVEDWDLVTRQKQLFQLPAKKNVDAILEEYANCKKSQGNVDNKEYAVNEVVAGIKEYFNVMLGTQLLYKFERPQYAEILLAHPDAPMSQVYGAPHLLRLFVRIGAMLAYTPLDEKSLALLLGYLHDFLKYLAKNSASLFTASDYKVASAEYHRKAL
# MPG, P29372, UniProt P29372, whole entry: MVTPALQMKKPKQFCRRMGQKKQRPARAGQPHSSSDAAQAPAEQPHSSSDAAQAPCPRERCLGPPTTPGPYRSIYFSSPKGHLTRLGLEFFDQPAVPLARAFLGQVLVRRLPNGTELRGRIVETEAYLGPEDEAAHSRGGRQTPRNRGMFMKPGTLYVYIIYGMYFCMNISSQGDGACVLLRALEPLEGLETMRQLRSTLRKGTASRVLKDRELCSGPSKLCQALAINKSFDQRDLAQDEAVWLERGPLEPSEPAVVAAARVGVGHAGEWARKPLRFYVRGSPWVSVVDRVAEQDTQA
# NUDT21, O43809, UniProt O43809, whole entry: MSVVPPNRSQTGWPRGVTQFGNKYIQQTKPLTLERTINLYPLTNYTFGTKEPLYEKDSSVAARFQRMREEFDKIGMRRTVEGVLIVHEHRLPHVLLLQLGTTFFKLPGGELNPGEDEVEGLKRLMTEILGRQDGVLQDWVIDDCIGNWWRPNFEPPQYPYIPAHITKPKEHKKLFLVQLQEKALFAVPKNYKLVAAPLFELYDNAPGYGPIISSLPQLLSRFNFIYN
# NUP153, P49790, UniProt P49790, whole entry: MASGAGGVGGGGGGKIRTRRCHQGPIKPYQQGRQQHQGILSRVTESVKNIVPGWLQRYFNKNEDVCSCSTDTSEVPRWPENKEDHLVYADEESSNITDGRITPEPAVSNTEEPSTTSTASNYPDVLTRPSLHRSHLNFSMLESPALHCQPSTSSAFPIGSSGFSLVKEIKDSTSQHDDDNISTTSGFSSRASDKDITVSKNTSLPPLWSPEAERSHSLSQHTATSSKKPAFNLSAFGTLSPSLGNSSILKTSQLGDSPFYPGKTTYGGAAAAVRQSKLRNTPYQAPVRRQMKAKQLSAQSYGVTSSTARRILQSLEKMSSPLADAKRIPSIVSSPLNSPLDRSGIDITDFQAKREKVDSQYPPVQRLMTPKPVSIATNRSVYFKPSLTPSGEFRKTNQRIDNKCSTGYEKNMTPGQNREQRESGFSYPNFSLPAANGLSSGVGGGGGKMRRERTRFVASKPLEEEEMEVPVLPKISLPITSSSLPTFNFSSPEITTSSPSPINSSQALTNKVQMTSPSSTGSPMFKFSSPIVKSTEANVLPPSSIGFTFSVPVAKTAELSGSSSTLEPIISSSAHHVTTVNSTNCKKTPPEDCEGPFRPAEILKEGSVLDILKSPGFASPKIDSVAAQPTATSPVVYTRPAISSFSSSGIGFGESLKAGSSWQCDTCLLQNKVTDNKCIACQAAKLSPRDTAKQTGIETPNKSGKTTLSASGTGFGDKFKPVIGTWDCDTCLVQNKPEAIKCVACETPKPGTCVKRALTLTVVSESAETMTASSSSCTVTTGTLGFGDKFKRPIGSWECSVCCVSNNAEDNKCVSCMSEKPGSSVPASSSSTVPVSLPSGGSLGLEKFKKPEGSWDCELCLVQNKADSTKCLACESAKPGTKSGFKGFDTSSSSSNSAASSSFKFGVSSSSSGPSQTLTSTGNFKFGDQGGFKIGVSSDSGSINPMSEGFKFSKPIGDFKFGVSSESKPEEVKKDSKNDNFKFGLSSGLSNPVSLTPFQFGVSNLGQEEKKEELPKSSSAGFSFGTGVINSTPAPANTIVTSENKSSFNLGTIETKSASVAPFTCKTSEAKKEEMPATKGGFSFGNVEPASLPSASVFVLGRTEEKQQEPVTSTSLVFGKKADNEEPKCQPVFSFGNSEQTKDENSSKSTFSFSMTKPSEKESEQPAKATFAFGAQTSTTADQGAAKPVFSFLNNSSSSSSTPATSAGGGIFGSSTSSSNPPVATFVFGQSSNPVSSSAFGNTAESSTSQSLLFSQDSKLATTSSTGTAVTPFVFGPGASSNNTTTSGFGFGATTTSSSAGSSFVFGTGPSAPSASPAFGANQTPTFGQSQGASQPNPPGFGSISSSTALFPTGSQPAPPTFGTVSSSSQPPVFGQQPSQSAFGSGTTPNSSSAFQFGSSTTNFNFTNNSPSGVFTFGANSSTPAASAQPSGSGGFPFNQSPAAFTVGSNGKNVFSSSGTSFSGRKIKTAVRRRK
# ± gives the standard deviation of the averaged measurements. Some of the results follow. Only hits are listed; about a third recur on repeated control peptides.
# Assays:
# Assay in all cases: PRISMA enrichment of interactor (LFQ) in peptide spot vs all other peptide spots (log2 fold change); higher = stronger / more specific binding of the interactor to the peptide
# [1] = target: HMGB2, P26583
# Protocol: (§1)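 PRISMA: 221 full-length sORF-encoded peptides (3-15 aa), plus SOS1/GLUT1 control peptides, were spot-synthesized on cellulose membranes in triplicate. Membranes were incubated with HEK293T lysate, and bound proteins were identified by LC-MS/MS with LFQ. Enrichment is the log2 fold change versus all other peptide spots; only significant interactors are listed (cutoff c=6, x0=2.8).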
# [2] = target: HNRNPA0, Q13151
# Protocol: as §1
# [3] = target: HNRNPA1, P09651
# Protocol: as §1
# [4] = target: HNRNPA3, P51991
# Protocol: as §1
# [5] = target: HOMER1, Q86YM7
# Protocol: as §1
# [6] = target: IBA57, Q5T440
# Protocol: as §1
# [7] = target: INCENP, Q9NQS7
# Protocol: as §1
# [8] = target: ISCU, Q9H1K1
# Protocol: as §1
# [9] = target: KHDRBS1, Q07666
# Protocol: as §1
# [10] = target: KHSRP, Q92945
# Protocol: as §1
# [11] = target: KIF2A, O00139
# Protocol: as §1
# [12] = target: KIF2C, Q99661
# Protocol: as §1
# [13] = target: KIF4A, O95239
# Protocol: as §1
# [14] = target: LENG1, Q96BZ8
# Protocol: as §1
# [15] = target: LRPAP1, P30533
# Protocol: as §1
# [16] = target: LSM14A, Q8ND56
# Protocol: as §1
# [17] = target: LSM14B, Q9BX40
# Protocol: as §1
# [18] = target: MAPK1, P28482
# Protocol: as §1
# [19] = target: MAZ, P56270
# Protocol: as §1
# [20] = target: MBNL1, Q9NR56
# Protocol: as §1
# [21] = target: MCCC2, Q9HCC0
# Protocol: as §1
# [22] = target: MCM3, P25205
# Protocol: as §1
# [23] = target: MCM5, P33992
# Protocol: as §1
# [24] = target: MCM7, P33993
# Protocol: as §1
# [25] = target: MED12, Q93074
# Protocol: as §1
# [26] = target: MED15, Q96RN5
# Protocol: as §1
# [27] = target: MORF4L1, Q9UBU8
# Protocol: as §1
# [28] = target: MORF4L2, Q15014
# Protocol: as §1
# [29] = target: MPG, P29372
# Protocol: as §1
# [30] = target: MTHFD1L, Q6UB35
# Protocol: as §1
# [31] = target: MTREX, P42285
# Protocol: as §1
# [32] = target: NDUFAF7, Q7L592
# Protocol: as §1
# [33] = target: NIFK, Q9BYG3
# Protocol: as §1
# [34] = target: NMD3, Q96D46
# Protocol: as §1
# [35] = target: NME4, O00746
# Protocol: as §1
# [36] = target: NOL10, Q9BSC4
# Protocol: as §1
# [37] = substrate: NONO, Q15233
# Protocol: as §1
# [38] = substrate: NOSIP, Q9Y314
# Protocol: as §1
# [39] = target: NTHL1, P78549
# Protocol: as §1
# [40] = target: NUDT16, Q96DE0
# Protocol: as §1
# [41] = target: NUDT16L1, Q9BRJ7
# Protocol: as §1
# [42] = target: NUDT21, O43809
# Protocol: as §1
# [43] = target: NUFIP2, Q7Z417
# Protocol: as §1
# [44] = target: NUP153, P49790
# Protocol: as §1
# [45] = target: NUSAP1, Q9BXS6
# Protocol: as §1
binder,measurement,setting,value
MVDNFYF [ASPN],PRISMA enrichment of interactor (log2),[1],4.44
same,PRISMA enrichment of interactor (log2),[2],5.34
same,PRISMA enrichment of interactor (log2),[3],5.12
same,PRISMA enrichment of interactor (log2),[4],5.05
same,PRISMA enrichment of interactor (log2),[5],5.9
same,PRISMA enrichment of interactor (log2),[6],6.73
same,PRISMA enrichment of interactor (log2),[7],3.76
same,PRISMA enrichment of interactor (log2),[8],5.26
same,PRISMA enrichment of interactor (log2),[9],5.37
same,PRISMA enrichment of interactor (log2),[10],5.2
same,PRISMA enrichment of interactor (log2),[11],4.88
same,PRISMA enrichment of interactor (log2),[12],5.92
same,PRISMA enrichment of interactor (log2),[13],5.18
same,PRISMA enrichment of interactor (log2),[14],3.93
same,PRISMA enrichment of interactor (log2),[15],5.78
same,PRISMA enrichment of interactor (log2),[16],5.73
same,PRISMA enrichment of interactor (log2),[17],3.93
same,PRISMA enrichment of interactor (log2),[18],4.83
same,PRISMA enrichment of interactor (log2),[19],5.64 ± 1.8
same,PRISMA enrichment of interactor (log2),[20],5.83
same,PRISMA enrichment of interactor (log2),[21],4.6
same,PRISMA enrichment of interactor (log2),[22],5.95
same,PRISMA enrichment of interactor (log2),[23],6.45
same,PRISMA enrichment of interactor (log2),[24],4.7
same,PRISMA enrichment of interactor (log2),[25],4.07
same,PRISMA enrichment of interactor (log2),[26],4.68
same,PRISMA enrichment of interactor (log2),[27],4.23
same,PRISMA enrichment of interactor (log2),[28],6.45
same,PRISMA enrichment of interactor (log2),[29],6.56
same,PRISMA enrichment of interactor (log2),[30],4.64
same,PRISMA enrichment of interactor (log2),[31],4.37
same,PRISMA enrichment of interactor (log2),[32],4.76
same,PRISMA enrichment of interactor (log2),[33],4.68
same,PRISMA enrichment of interactor (log2),[34],6.24
same,PRISMA enrichment of interactor (log2),[35],6.24
same,PRISMA enrichment of interactor (log2),[36],5.34
same,PRISMA enrichment of interactor (log2),[37],6.52
same,PRISMA enrichment of interactor (log2),[38],7.09
same,PRISMA enrichment of interactor (log2),[39],4.43
same,PRISMA enrichment of interactor (log2),[40],4.56
same,PRISMA enrichment of interactor (log2),[41],5.64
same,PRISMA enrichment of interactor (log2),[42],4.9
same,PRISMA enrichment of interactor (log2),[43],5.86
same,PRISMA enrichment of interactor (log2),[44],5.47
same,PRISMA enrichment of interactor (log2),[45],6.02

# Part of the list above, bar-delimited:
binder | measurement | setting | value
MVDNFYF [ASPN] | PRISMA enrichment of interactor (log2) | [38] | 7.09
same | PRISMA enrichment of interactor (log2) | [39] | 4.43
same | PRISMA enrichment of interactor (log2) | [40] | 4.56
